PubChem BioAssay AID1259405, NCATS – 2018
The deposit covers about 50,000 reagents; below is an unselected part. About 4,000 of them (8%) count as active. 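Mouse siRNA library applied to hamster cells; one well for each siRNA.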 The numbers tell different reagents against one gene apart. Not all columns of the deposit are shown.

Purpose: 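Mouse-designed siRNAs used to find CHO productivity engineering targets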 (primary screen)
Cells: Chinese hamster CHO-K1 ovary cells with stable secreted eGFP expression
Knock-down reagent: single siRNA against mouse genes, 0.8 pmol siRNA per well (2 µl of 400 nM stock)
Time to read-out: 3 days
Measurement: 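Percent of the per-plate non-targeting control median for intracellular GFP per well by laser scanning cytometry and for cell viability by ATP luminescence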
Scale: GFP, % of control: higher = more GFP per well, higher productivity
Hit rule: 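a knock-down is called active if GFP reaches 120% or more of non-targeting control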

GFP, % of control, by target and reagent
Trmt61a (tRNA methyltransferase 61A): #1 92.8 inactive; #2 57.8 inactive; #3 108 inactive
Arl5b (ADP-ribosylation factor-like 5B): #1 125 active; #2 67.1 inactive; #3 82.1 inactive
Nek11 (NIMA (never in mitosis gene a)-related expressed kinase 11): #1 85.3 inactive
Kcnc2: #1 103 inactive; #2 70.1 inactive; #3 85.1 inactive
Ahsa2 (AHA1, activator of heat shock protein ATPase 2): #1 62.6 inactive; #2 107 inactive; #3 79.7 inactive
Spaca7b (sperm acrosome associated 7B): #1 86.3 inactive; #2 54.5 inactive; #3 42.3 inactive
Specc1: #1 67.6 inactive; #2 73.2 inactive; #3 94.9 inactive
N4bp3 (NEDD4 binding protein 3): #1 71.5 inactive; #2 87.9 inactive; #3 82 inactive
Arfgap3 (ARF GTPase activating protein 3): #1 126 active; #2 88.8 inactive; #3 105 inactive
Mrpl48 (mitochondrial ribosomal protein L48): #1 153 active; #2 105 inactive; #3 94.4 inactive
Kcnab2: #1 84.8 inactive; #2 62.5 inactive; #3 31.7 inactive
Man2a1 (mannosidase 2, alpha 1): #1 134 active; #2 104 inactive; #3 69.6 inactive
Zfp36l1 (zinc finger protein 36, C3H type-like 1): #1 78.8 inactive; #2 85.4 inactive
Ddx11 (DEAD/H box helicase 11): #1 90.9 inactive; #2 81.1 inactive; #3 84.8 inactive
Dtx4 (deltex 4, E3 ubiquitin ligase): #1 115 inactive; #2 35.8 inactive; #3 79.2 inactive
Cmas (cytidine monophospho-N-acetylneuraminic acid synthetase): #1 106 inactive; #2 121 active; #3 129 active
Fam149b (family with sequence similarity 149, member B): #1 33.5 inactive; #2 71.2 inactive; #3 73.3 inactive
Timd2 (T cell immunoglobulin and mucin domain containing 2): #1 89.9 inactive; #2 101 inactive; #3 56.3 inactive
9530056K15Rik (RIKEN cDNA 9530056K15 gene): #1 79.1 inactive; #2 96.8 inactive; #3 70.1 inactive
Spag8 (sperm associated antigen 8): #1 123 active; #2 86.3 inactive; #3 66 inactive

Active calls, among the entries above:
GFP, % of control, by target and reagent
Arl5b (ADP-ribosylation factor-like 5B): #1 125 active
Arfgap3 (ARF GTPase activating protein 3): #1 126 active
Mrpl48 (mitochondrial ribosomal protein L48): #1 153 active
Man2a1 (mannosidase 2, alpha 1): #1 134 active
Cmas (cytidine monophospho-N-acetylneuraminic acid synthetase): #2 121 active; #3 129 active
Spag8 (sperm associated antigen 8): #1 123 active
